Measured data: PubChem BioAssay AID493246 (Drosophila RNAi Screening Center, 2011)

- Screen: 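Genes fly cells need to grow and stay alive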 (primary screen)
- Cells: Drosophila Kc and S2R+ cells
- Knock-down reagent: long dsRNA against Drosophila genes
- Measured: 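Cell number per well after knock-down, printed as raw plate values; calls were based on per-plate z-scores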
- Direction: Kc cell number and S2R+ cell number: higher = more cells remaining
- Call rule: 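Counted as a hit if cell number falls by a z-score of at least 3 within its plate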
The screen tested about 21,000 reagents; below is a random part of those with a known target gene and a result. Of all reagents, 429 (2%) are marked active. 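Values are raw and not normalised between plates; calls rest on per-plate z-scores that were not deposited.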 The numbers tell different reagents against one gene apart. A plus sign joins genes that one reagent is predicted to hit. The record does not give: the amount of reagent, the time to read-out.

target gene	reagent	Kc cell number, rep 1	Kc cell number, rep 2	S2R+ cell number, rep 1	S2R+ cell number, rep 2	Call
Ugt37C1 (UDP-glycosyltransferase family 37 member C1)	1	1.61e6	1.62e6	1.17e6	1.33e6	inactive
msopa (male-specific opa containing gene)	1	1.20e6	1.13e6	7.63e5	8.70e5	active
Sec13 (Secretory 13)	1	1.52e6	1.70e6	1.27e6	1.36e6	inactive
borr (borealin-related)	1	1.29e6	1.30e6	1.05e6	1.06e6	inactive
CG18336	1	1.54e6	1.62e6	1.25e6	1.33e6	inactive
CG10725	1	1.46e6	1.53e6	1.47e6	1.20e6	inactive
CG5339	1	1.36e6	1.47e6	1.02e6	1.01e6	inactive
Ssl (Suppressor of Stellate-like)	1	1.54e6	1.59e6	1.27e6	1.37e6	inactive
S1P (Site-1 protease)	1	1.37e6	1.40e6	1.22e6	1.34e6	inactive
CG18540	1	1.47e6	1.51e6	1.04e6	1.14e6	inactive
CG32645	1	1.65e6	1.70e6	1.05e6	1.25e6	inactive
CG32645	2	1.58e6	1.64e6	1.06e6	1.17e6	inactive
Eglp1 (Entomoglyceroporin 1)	1	1.42e6	1.60e6	9.66e5	1.09e6	inactive
Obp59a (Odorant-binding protein 59a)	1	1.50e6	1.56e6	1.26e6	1.30e6	inactive
Gs2 (Glutamine synthetase 2)	1	1.56e6	1.50e6	1.07e6	1.16e6	inactive
CG3257	1	1.42e6	1.50e6	1.14e6	1.14e6	inactive
Vajk4	1	1.27e6	1.27e6	8.98e5	7.69e5	inactive
Vajk4	2	1.52e6	1.62e6	1.18e6	1.30e6	inactive
Abca3 (ATP binding cassette subfamily A member 3)	1	1.67e6	1.70e6	1.20e6	1.56e6	inactive
Sf3b5 (Splicing factor 3b subunit 5)	1	1.21e6	1.38e6	8.54e5	1.04e6	inactive
CR12798 (pseudo)	1	1.59e6	1.67e6	1.07e6	1.16e6	inactive
CG45067	1	1.49e6	1.44e6	1.04e6	1.37e6	inactive
Mfap1 (Microfibril-associated protein 1)	1	1.30e6	1.39e6	9.26e5	9.76e5	inactive
CG43658	1	1.45e6	1.45e6	1.01e6	1.09e6	inactive
Adck1 (aarF domain containing kinase 1)	1	1.38e6	1.42e6	1.20e6	1.30e6	inactive
c(2)M (crossover suppressor on 2 of Manheim)	1	1.59e6	1.60e6	1.28e6	1.36e6	inactive
CG13473	1	1.49e6	1.53e6	1.18e6	1.23e6	inactive
CG15506	1	1.46e6	1.44e6	9.90e5	1.06e6	inactive
Rpn12 (Regulatory particle non-ATPase 12)	1	9.36e5	9.49e5	7.10e5	8.24e5	active
CG14562	1	1.32e6	1.42e6	1.27e6	1.35e6	inactive
Taf10b (TBP-associated factor 10b)	1	1.58e6	1.63e6	1.11e6	1.32e6	inactive
MFS3 (Major Facilitator Superfamily Transporter 3)	1	1.49e6	1.51e6	1.05e6	1.19e6	inactive
Rcd6 (Reduction in Cnn dots 6)	1	1.38e6	1.43e6	1.10e6	1.19e6	inactive
Prp6 (pre-mRNA processing factor 6)	1	1.66e6	1.71e6	1.07e6	1.22e6	inactive
CG7509	1	1.45e6	1.52e6	1.36e6	1.31e6	inactive
CG33552	1	1.48e6	1.55e6	9.64e5	1.12e6	inactive
CG13437	1	1.32e6	1.40e6	1.04e6	1.23e6	inactive
CG8272	1	1.40e6	1.47e6	1.20e6	1.19e6	inactive
cDIP (Common Dpr-interacting protein)	1	1.55e6	1.69e6	1.25e6	1.32e6	inactive
ac (achaete)	1	1.27e6	1.44e6	7.25e5	8.70e5	inactive
CG3651	1	1.53e6	1.56e6	1.26e6	3.14e5	inactive
Pex2 (Peroxin 2)	1	1.28e6	1.42e6	1.32e6	1.15e6	inactive
Naglu (N-acetyl-alpha-glucosaminidase)	1	1.31e6	1.38e6	5.21e5	6.36e5	inactive
CG7631	1	1.52e6	1.64e6	1.21e6	1.36e6	inactive
CG30376	1	1.45e6	1.51e6	9.78e5	1.04e6	inactive
Rilpl (Rab interacting lysosomal protein like)	1	5.15e5		7.95e5		inactive
SPoCk (Secretory Pathway Calcium atpase)	1	1.58e6	1.89e6	1.20e6	1.29e6	inactive
SPoCk (Secretory Pathway Calcium atpase)	2	1.73e6	1.87e6	1.24e6	1.44e6	inactive
SPoCk (Secretory Pathway Calcium atpase)	3	1.52e6	1.63e6	1.21e6	1.29e6	inactive
SPoCk (Secretory Pathway Calcium atpase)	4	1.41e6	1.50e6	1.23e6	1.33e6	inactive
CG15198	1	1.64e6	1.62e6	1.10e6	1.24e6	inactive
Txl (Thioredoxin-like)	1	1.60e6	1.79e6	1.08e6	1.16e6	inactive
NitFhit (Nitrilase and fragile histidine triad fusion protein)	1	1.30e6	1.34e6	9.86e5	1.25e6	inactive
CG9592	1	1.54e6	1.75e6	1.29e6	1.55e6	inactive
nrm (neuromusculin)	1	1.47e6	1.58e6	1.17e6	1.40e6	inactive
nrm (neuromusculin)	2	1.46e6	1.57e6	1.19e6	1.37e6	inactive
nrm (neuromusculin)	3	1.41e6	1.69e6	1.20e6	1.33e6	inactive
Rca1 (Regulator of cyclin A1)	1	9.36e5	1.08e6	3.90e5	5.13e5	inactive
NFAT (NFAT nuclear factor)	1	1.36e6	1.35e6	8.75e5	1.03e6	inactive
NFAT (NFAT nuclear factor)	2	1.69e6	1.58e6	1.10e6	1.18e6	inactive
CG31495	1	1.19e6	1.28e6	1.16e6	1.29e6	inactive
Or92a (Odorant receptor 92a)	1	1.39e6	1.37e6	1.14e6	1.23e6	inactive
BuGZ (Bub3 interacting GLEBS and Zinc finger domain protein)	1	1.19e6	1.26e6	1.16e6	1.26e6	inactive
BuGZ (Bub3 interacting GLEBS and Zinc finger domain protein)	2	1.56e6	1.55e6	1.26e6	1.41e6	inactive
Zpr1	1	6.19e5		8.36e5		inactive
klu (klumpfuss)	1	1.53e6	1.46e6	1.22e6	1.34e6	inactive
Ids (Iduronate 2-sulfatase)	1	1.44e6	1.31e6	1.06e6	1.28e6	inactive
mfrn (mitoferrin)	1	1.50e6	1.53e6	6.86e5	7.88e5	inactive
AdipoR (Adiponectin receptor)	1	1.39e6	1.49e6	1.17e6	1.20e6	inactive
Spn28F (Serpin 28F)	1	1.44e6	1.54e6	1.23e6	1.35e6	inactive
Snap29 (Synaptosomal-associated protein 29kDa)	1	1.64e6	1.74e6	1.28e6	1.36e6	inactive
Ir7f (Ionotropic receptor 7f)	1	1.51e6	1.49e6	1.04e6	1.12e6	inactive
atms (antimeros)	1	1.29e6	1.31e6	1.32e6	1.28e6	inactive
ValRS-m (Valyl-tRNA synthetase, mitochondrial)	1	1.47e6	1.74e6	1.16e6	1.23e6	inactive
CG5493 + CG5327	1	1.61e6	1.62e6	1.24e6	1.33e6	inactive

Part of the list above in another layout.
target gene | reagent | Kc cell number, rep 1 | Kc cell number, rep 2 | S2R+ cell number, rep 1 | S2R+ cell number, rep 2 | Call
CG3651 | 1 | 1.53e6 | 1.56e6 | 1.26e6 | 3.14e5 | inactive
Pex2 (Peroxin 2) | 1 | 1.28e6 | 1.42e6 | 1.32e6 | 1.15e6 | inactive
Naglu (N-acetyl-alpha-glucosaminidase) | 1 | 1.31e6 | 1.38e6 | 5.21e5 | 6.36e5 | inactive
CG7631 | 1 | 1.52e6 | 1.64e6 | 1.21e6 | 1.36e6 | inactive
CG30376 | 1 | 1.45e6 | 1.51e6 | 9.78e5 | 1.04e6 | inactive
Rilpl (Rab interacting lysosomal protein like) | 1 | 5.15e5 | – | 7.95e5 | – | inactive
SPoCk (Secretory Pathway Calcium atpase) | 1 | 1.58e6 | 1.89e6 | 1.20e6 | 1.29e6 | inactive
SPoCk (Secretory Pathway Calcium atpase) | 2 | 1.73e6 | 1.87e6 | 1.24e6 | 1.44e6 | inactive
